The DeepSol protein solubility set

Test: soluble on expression in E. coli; label from the status in PepcDB or PDB records

Sequence | soluble on expression in E. coli
EEEFLLSYIPAPKELKAVLDNYVIGQEQAKKVFSVAVYNHYKRLSFKEKLKKQDNQDSNVELEHLEEVELSKSNILLIGPTGSGKTLMAQTLAKHLDIPIAISDATSLTEAGYVGEDVENILTRLLQASDWNVQKAQKGIVFIDEIDKISRLSENRSITRDVSGEGVQQALLKIVEGSLVNIPPKGGRKHPEGNFIQIDTSDILFICAGAFDGLAEIIKKRTTQNVLGFTQEKMSKKEQEAILHLVQTHDLVTYGLIPELIGRLPVLSTLDSISLEAMVDILQKPKNALIKQYQQLFKMDEVDLIFEEEAIKEIAQLALERKTGARGLRAIIEDFCLDIMFDLPKLKGSEVRITKDCVLKQAEPLIIAKTHSKILP | soluble
GLDSPTGFDSSDITANSFTVHWVAPRAPITGYIIRHHAEHSVGRPRQDRVPPSRNSITLTNLNPGTEYVVSIIAVNGREESPPLIGQQATVSDIPRDLEVIASTPTSLLISWEPPAVSVRYYRITYGETGGNSPVQEFTVPGSKSTATINNIKPGADYTITLYAVTGRGDSPASSKPVSINYKT | soluble
GSHMPLEFLRNQPQFQQMRQIIQQNPSLLPALLQQIGRENPQLLQQISQHQEHFIQMLNEPVQEAGGQGGGG | soluble
GSMSTRESFNPESYELDKSFRLTRFTELKGTGCKVPQDVLQKLLESLQENHFQEDEQFLGAVMPRLGIGMDTCVIPLRHGGLSLVQTTDYIYPIVDDPYMMGRIACANVLSDLYAMGVTECDNMLMLLGVSNKMTDRERDKVMPLIIQGFKDAAEEAGTSVTGGQTVLNPWIVLGGVATTVCQPNEFIMPDNAVPGDVLVLTKPLGTQVAVAVHQWLDIPEKWNKIKLVVTQEDVELAYQEAMMNMARLNRTAAGLMHTFNAHAATDITGFGILGHAQNLAKQQRNEVSFVIHNLPVLAKMAAVSKACGNMFGLMHGTCPETSGGLLICLPREQAARFCAEIKSPKYGEGHQAWIIGIVEKGNRTARIIDKPRIIEVAPQVATQNVNPTPGATS | soluble
GSSHHHHHHSSGLVPRGSHMSVHQVIELPAPAQPISVTMVTPADLEPPQAVQPPPEPVVEPEPEPEPIPEPPKEAPVVIEKPKPKPKPKPKPVKKVQEQPKRDVKPVESRPASPFENTAPARLTSSTATAATSKPVTSVASGPRALSRNQPQYPARAQALRIEGQVKVKFDVTPDGRVDNVQILSAKPANMFEREVKNAMRRWRYEPGKPGSGIVVNILFKINGTTEIQ | soluble
MAANLSRNGPALQEAYVRVVTEKSPTDWALFTYEGNSNDIRVAGTGEGGLEEMVEELNSGKVMYAFCRVKDPNSGLPKFVLINWTGEGVNDVRKGACASHVSTMASFLKGAHVTINARAEEDVEPECIMEKVA | soluble
MAARPLVTVYDEKYEATQSQIRLPAVFRTPIRPDLVSFIADQVRRNRRQAHAVNTKAGKQHSAESWGTGRAVARIPRVRGGGTHRSGQGAFGNMCRGGHMFAPLKVFRRWHRNVNIAQKRYAVSSAIAASGIPALLQARGHVIDQVAEVPLVVSDKVESFRKTKEAVVFLRRSHLWADIEKVYNSKRNRAGKGKLRNRQHKQKLGPVVIYGQDAECARAFRNIPGVDVMNVERLNLLKLAPGGHLGRLIIWTESAFKKLDTIYGTTVANSSQLKKGWSVPLPIMANSDFSRIIRSEEVVKAIRAPKKNPVLPKVHRNPLKKRTLLYKLNPYASILRKASKANVKK | not soluble
MGCRQNNERYIGPHAMEPRNDTGELLATFCETNRLWHTNSMFKKPMHKRWTFVSPDGNHRHEIDHILANGKFVTDTTVLPSFTNGSDHRLLRCNLHFNNCLAKLEQVRRRKPPKRVLDPAIAYAISATVTVQSDPDLDTDYDNLIQSLKELQDQAIVRPANHSSNRLSEETRKLLNKRRFMDRNDPQFKSISDKCREAVQKDHEAFASTRLLSAANQKKSLKRVARDINEYKSVIPCLKSTSTGERITSRVKMEQEIEKFYTELFKSAVSNSQTSSIPATATPPPFLPEEIRHVLRSFPNGKAAGQDKISADFLKSCHDNVIDLITDRFNRYLHSRNVPKPWKTSKTTLIFKKGDRENLENYRPICLLPVLYKVFTKCLLNRMRRSLDEAQPVEQAGFRRSFSTIDHIHSLQRLLEVGREYQIPLTLVFIDFKKAFDSVEHQAIWKSLDEQGADGAYIDLLKECYKNCTTNFTPFHRPVAVPVTKGVRQGDPISPNLFSACLEHVFRKLSWIELKGEAEDYDTIPGMRVNGRNLTNLRFADDIVLIANHPNIASKMLQELVQKCSEVGLEINTGKTKVLRNRFADPSKVYFGSPSPTTQLDDVDEYIYLGRQINAQNNLMPEIHRRRRAAWAAFNGIKNTTDSITDKKIRANLFDSIVLPALTYGSEAWTFTKALSERVRITHASLERRLVGITLTQQRERDLHREDIRTMSLVRDPLNFVKKRKLGWAGHVARRKDGRWTTLMTEWRPYGWKRPVGRPPMRWTDSLRKEITTRDADGEVITPWSTIAKDRKQWLAVIRRNTTNS | not soluble
MIRFILIQNRAGKTRLAKWYMQFDDDEKQKLIEEVHAVVTVRDAKHTNFVEFRNFKIIYRRYAGLYFCICVDVNDNNLAYLEAIHNFVEVLNEYFHNVCELDLVFNFYKVYTVVDEMFLAGEIRETSQTKVLKQLLMLQSLE | soluble
MKKLPVTVLSGFLGAGKTTLLNHILANRDGLRVALIVNDMSEINIDAALVRDGGANLSRTEEQLVEMTNGCICCTLRDDLLTEVRALAEQGRFDYLLIESTGIAEPLPVAATFDFRDENGRSLSDVAQLDTMVTVVDAANLLNDYGSSDFLADRGETAGDGDNRTIVDLLVEQIEFADVVVLNKIGTATPEERDAARKIIVGLNPDAKLIEADFGKVELKEVLGTGRFDFARAEEHPLWFKELHGFKDHIPETEEYGIRSFVYRAKKPFDPVLFQRFIDRAWPGVVRAKGFFWLATRPRYVGEISQAGALVRTGKMGLWWSAVPREQWPREKQFLDMMEPYLDPTFGDRRQEIVFIGSDPMSEARIRAQLDACLIDTEAFTPDAWRHLPDPFANWDRQAA | not soluble
MKRMLINATQQEELRVALVDGQRLYDLDIESPGHEQKKANIYKGKITRIEPSLEAAFVDYGAERHGFLPLKEIAREYFPANYSAHGRPNIKDVLREGQEVIVQIDKEERGNKGAALTTFISLAGSYLVLMPNNPRAGGISRRIEGDDRTELKEALASLELPEGMGLIVRTAGVGKSAEALQWDLSFRLKHWEAIKKAAESRPAPFLIHQESNVIVRAFRDYLRQDIGEILIDNPKVLELARQHIAALGRPDFSSKIKLYTGEIPLFSHYQIESQIESAFQREVRLPSGGSIVIDSTEALTAIDINSARATRGGDIEETAFNTNLEAADEIARQLRLRDLGGLIVIDFIDMTPVRHQRAVENRLREAVRQDRARIQISHISRFGLLEMSRQRLSPSLGESSHHVCPRCSGTGTVRDNESLSLSILRLIEEEALKENTQEVHAIVPVPIASYLLNEKRSAVNAIETRQDGVRCVIVPNDQMETPHYHVLRVRKGEETPTLSYMLPKLHEEAMALPSEEEFAERKRPEQPALATFAMPDVPPAPTPAEPAAPVVAPAPKAAPATPATPAQPGLLSRFFGALKALFSGGEETKPTEQPAPKAEAKPERQQDRRKPRQNNRRDRNERRDTRSERTEGSDNREENRRNRRQAQQQTAETREGRQQAEVTEKARTADEQQAPRRERSRRRNDDKRQAQQEAKALNVEEQSVQETEQEERVRPVQPRRKQRQLNQKVRYEQSVAEETVVAPVAEETVAAEPIVQEAPAPRTELVKVPLPVVAQTAPEQQEENNADNRDNGGMPRRSRRSPRHLRVSGQRRRRYRDERYPTQSPMPLTVACASPELASGKVWIRYPIVRPQDVQVEEQREQEEVQVQPMVTEVPVAAAVEPVVSAPVVEEMAEVVEAPVPVAEPQPEVVETTHPEVIAAAVTEQPQVITESDVAVAQEVAEHAEPVVEPQEETADIEEVAETAEVVVAEPEVVAQPAAPVVAEVAAEVETVTAVKPEITVEHNHATAPMTRAPAPEYVPEAPRHSDWQRPTFAFEGKGAAGGHTATHHASAAPARPQPVE | not soluble
MNANDLFGGLSESSGSSDEDDDTVMPQPTGAHNVLADLELSDDDGDEDFSRDGMRSDENQISPGQESVPTPITPRAPVVFSLSDGEDSMDMPDIDQMMMKRNAAAAAAAAAEEQAAREAEADRVAEANRAAETAKTAEKRKIDKISKSEPPRKQPRHDDNSEAGPSGQISGDDDLLDTNISLESFDLSKVNDARYQALIQQHQPEEEAPGPSRPAPARPARKLDDEEENELSRLKTQVLLSNFSQEQLERYESYRRSSFQKSTIRRLISQYTGGVNVGQSVVIAIAGLAKVFVGEVVEEALDIRDINEEEASNPLQPHHIRQAFLRLGEQGKLFPPIGPKQSHLE | not soluble
MPAKAVCVLRGDVSGTVFFDQQDEKSPVVVSGEVQGLTKGKHGFHVHEFGDNTNGCTSAGAHFNPEKQDHGGPSSAVRHVGDLGNIEAIEDAGVTKVSIQDSQISLHGPNSIIGRTLVVHADPDDLGLGGNELSKTTGNAGGRIACGVIGLAKI | soluble
MPQLLQNINGIIEAFRRYARTEGNCTALTRGELKRLLEQEFADVIVKPHDPATVDEVLRLLDEDHTGTVEFKEFLVLVFKVAQACFKTLSESAEGACGSQESGSLHSGASQELGEGQRSGTEVGRAGKGQHYEGSSHRQSQQGSRGQNRPGVQTQGQATGSAWVSSYDRQAESQSQERISPQIQLSGQTEQTQKAGEGKRNQTTEMRPERQPQTREQDRAHQTGETVTGSGTQTQAGATQTVEQDSSHQTGRTSKQTQEATNDQNRGTETHGQGRSQTSQAVTGGHAQIQAGTHTQTPTQTVEQDSSHQTGSTSTQTQESTNGQNRGTEIHGQGRSQTSQAVTGGHTQIQAGSHTETVEQDRSQTVSHGGAREQGQTQTQPGSGQRWMQVSNPEAGETVPGGQAQTGASTEPGRQEWSSTHPRRCVTEGQGDRQPTVVGEEWVDDHSRETVILRLDQGNLHTSVSSAQGQDAAQSEEKRGITARELYSYLRSTKP | soluble
MRLIKAFLVQLLLLPIFFYKRFISPLTPPSCRFTPSCSSYAIEALRKYGPGKGLLLSIKRILRCHPWGGSGYDPVPLEHHHHHH | not soluble
MRSDVIKKGIERAPHRSLFKAMGFTDEELERPLIGVANSFNELIPGHIHLRKIAEAVKAGIRMAGGTPLEFNTIGICDGIAMNHLGMKYSLPSRELIADSVELVARVYHFDGIVVIASCDKIIPGMLMAIARLNIPAIFVSGGPMLPGRFKGEYVDVKTVFEAVGAVKAGKMSYEELKLLENFACPGCGSCAGMFTANTMNALTEALGISLPWNGTAPAPYAHRIRIAKETGMQIVKLVEKDVKARDILTREAFEDAIAVDMALGGSTNTVLHLMAIANEAKVDLSLEDFDRISEKTPTLAKLSPAGKHFVVDLYEAGGILGVMKRLSELGLIHEDRLTVSLKTVGELLKSAFVSRDDVIRPVTNPYHPRGGIMILRGTLAPNGAVIKVSAVEGVEVFEGPAKVFDSEEEATAAILSGKIERGDVVVIRYEGPKGGPGMREMLTPTSAIAGMGLDKDVALVTDGRFSGATRGLSVGHVSPEAAEGGPIALVKDGDIIRIDLKNKRIDLLVDEEELRKRREEWKPKVKELTGYLKRYSTLVTSANTGAILRHLEHHHHHH | not soluble
MSLTAPHIVDPERLLREALGEASPDLLRHLLQTVINALLSADADAVCGAEYGKPSEHRTAQRNGYRHRPLDTRAGTIDVAIPKLRAGTYFPEWLLERRKRAESALITVVADCYLAGVSTRRMDKLVRQLGIDSLSKSQVSRMAQELDEHIEAFRHRPLGEAGPFVFLAADALTMKVREGGRVINAVAMVATGVNADGRREVLGLRVATTETGAAWNEFFADLVARGLAGVALVTSDSHRGLVEAVAANLPGAVWQRCRTHYAANLMAVTPKSMWPAVKAMLHSVYDQPDGPAVQAQFERLLDYVQDRLPAVAGHLDAAREDILAFTSFPRDVWSQIWSNNPAERLNREIRRRTDSVGIFPNRDAVVRLVGAVLAEQTDEWAEGRRYLGLELLARCREPLTTEQETVMSTEVMPTEGHHHHHH | soluble
